From PubChem BioAssay AID330 (DTP/NCI, 2004)
The list does not hold the whole screen: it gathers tests that were run many times, whatever their T/C, doses with no T/C, and many T/C values between a quarter and a half above the control. Other doses and runs of a compound stand elsewhere. T/C gives the treated animals as a percentage of the vehicle group. Some doses have a count of surviving animals in place of a T/C: the source files T/C as zero there, which appears to mark a toxic dose or a test without result, not a measured value. Some survivor counts are full or nearly so, which does not show that the dose was tolerated: survival well below the control is almost never listed, so the zero probably covers shortened survival too. Counts of survivors are from the toxicity check (mostly the fifth day) where no day follows; animals may have died later. Schedules are NCI's codes, read here as Q, the interval in days (D) or hours (H), X, the number of doses. Some doses were run more than once; their values stand side by side, smallest first. Where survival is the endpoint, this PubChem deposit counts one and a half times the control or more as active, and values a quarter to a half above the control carry no call in these data; other NCI protocols may use other cut-offs. Some T/C values carry the count of animals alive at the toxicity check (mostly the fifth day); where none is given, no animal had died by that day.

Test system: P388 leukemia ip, CD2F1 mice, survival T/C
Experiment: NCI In Vivo Anticancer Drug Screen. Data for tumor model P388 Leukemia (intraperitoneal) in CD2F1 (CDF1) mice
Conditions: T/C endpoint: median survival time, higher T/C = longer survival
[1] = dose: 200.0 mg/kg/injection, schedule: Q01DX009 (ip), vehicle: saline
[2] = dose: 200.0 mg/kg/injection, schedule: Q01DX005 (ip), vehicle: Klucel (hydroxypropylcellulose) (HPC)
[3] = dose: 50.0 mg/kg/injection, schedule: Q01DX009 (ip), vehicle: Klucel (hydroxypropylcellulose) (HPC)
[4] = dose: 100.0 mg/kg/injection, schedule: Q01DX009 (ip), vehicle: Klucel (hydroxypropylcellulose) (HPC)
[5] = dose: 200.0 mg/kg/injection, schedule: Q01DX009 (ip), vehicle: Klucel (hydroxypropylcellulose) (HPC)
[6] = dose: 120.0 mg/kg/injection, schedule: Q01DX005 (ip), vehicle: saline with Tween-80
[7] = dose: 240.0 mg/kg/injection, schedule: Q01DX005 (ip), vehicle: saline with Tween-80
[8] = dose: 200.0 mg/kg/injection, schedule: Q01DX009 (ip), vehicle: saline with Tween-80
[9] = dose: 200.0 mg/kg/injection, schedule: Q01DX005 (ip), vehicle: saline
[10] = dose: 120.0 mg/kg/injection, schedule: Q01DX005 (ip), vehicle: saline
[11] = dose: 240.0 mg/kg/injection, schedule: Q01DX005 (ip), vehicle: saline
[12] = dose: 200.0 mg/kg/injection, schedule: Q01DX005 (ip), vehicle: saline with Tween-80

Which survivor count (dose: 400.0 mg/kg/injection, schedule: Q04DX002 (ip), vehicle: suspension in saline) does the source give for COc1cccc(OC)c1SSCCN here?
Its survivor count is 5 of 5.

With O=C(NCCCl)Oc1cccn(C(=O)NCCCl)c1=O as the compound, how does the survivor count (dose: 100.0 mg/kg/injection, schedule: Q01DX009 (ip), vehicle: saline) read?
Its survivor count is 5 of 6.

What about the survivor count [1] of the same compound?
Its survivor count is 0 of 6.

What about the survivor count (dose: 400.0 mg/kg/injection, schedule: Q01DX009 (ip), vehicle: saline) of the same compound?
The survivor count was 0 of 6.

What about the survivor count (dose: 400.0 mg/kg/injection, schedule: Q01DX009 (sc), vehicle: saline with Tween-80) of the same compound?
The survivor count was 4 of 6.

CCCCCCCCCCN(CCCCCCCCCC)CC(=O)c1ccc2cc(Br)c3ccccc3c2c1 was tested. Which survivor count [2] did it give?
Its survivor count is 3 of 5.

What does the source list for Cc1ccc(NC(=S)SCc2ccc3c(c2)OCO3)cc1Br?
T/C [3]: 125 % of control; T/C [4]: 132 % of control

With CCN1CCC(=C(c2ccccc2)c2ccccc2)C1 as the compound, how does the survivor count [5] read?
The survivor count was 0 of 6.

COc1cc2c(cc1OC)C(Cc1ccsc1)NCC2 (centres undefined) was tested. Which survivor count (dose: 200.0 mg/kg/injection, schedule: Q04DX002 (ip), vehicle: Klucel (hydroxypropylcellulose) (HPC)) did it give?
Its survivor count is 0 of 5.

For O=C1OC(OCC#CCOC2OC(=O)C(Cl)=C2Cl)C(Cl)=C1Cl (centres undefined), which survivor count [6] is on record?
Its survivor count is 0 of 6.

And the survivor count [7]?
Its survivor count is 0 of 6.

How did the survivor count [6] turn out when Cc1cc2cc3c(=O)[nH]c(=O)nc-3n(CC(O)C(O)C(O)CO)c2cc1C (centres undefined) was run?
Its survivor count is 6 of 6.

And the survivor count [7]?
The survivor count was 6 of 6.

Cc1ccc(NN=O)nc1 was tested. Which T/C (dose: 3.12 mg/kg/injection, schedule: Q01DX009 (ip), vehicle: water) did it give?
Its T/C is 128 and 134 % of control.

And the survivor count (dose: 25.0 mg/kg/injection, schedule: Q01DX009 (ip), vehicle: water)?
The survivor count was 3 of 6 and 5 of 6.

For O=Nc1sc(=S)n(N2CCCCC2)c1O, which survivor count [2] is on record?
Its survivor count is 4 of 6.

O=C(O)c1c(Cl)c(Cl)c(Cl)c(Cl)c1C(=O)Nc1ccc2cn[nH]c2c1 was tested. Which survivor count (dose: 200.0 mg/kg/injection, schedule: Q01DX009 (ip), vehicle: saline + alcohol) did it give?
The survivor count was 5 of 6.

For CN(C)CCC(CCc1ccccc1)OC(=O)c1ccc([N+](=O)[O-])cc1 (centres undefined), which survivor count (dose: 200.0 mg/kg/injection, schedule: Q04DX002 (ip), vehicle: saline) is on record?
Its survivor count is 3 of 6.

What does the source list for O=C(O)C1CC(c2ccccc2)=NN1c1ccccc1 (centres undefined)?
T/C (dose: 200.0 mg/kg/injection, schedule: Q01DX009 (ip), vehicle: water): 125 and 128 % of control; survivor count (dose: 300.0 mg/kg/injection, schedule: Q01DX009 (ip), vehicle: water): 3 of 6

How did the survivor count (dose: 25.0 mg/kg/injection, schedule: Q01DX009 (ip), vehicle: Klucel (hydroxypropylcellulose) (HPC)) turn out when O=C(CBr)Nc1ncc([N+](=O)[O-])s1 was run?
The survivor count was 2 of 6.

And the survivor count [3]?
The survivor count was 0 of 6.

And the survivor count [4]?
The survivor count was 0 of 6.

And the survivor count [5]?
Its survivor count is 0 of 6.

How did the T/C (dose: 32.0 mg/kg/injection, schedule: Q01DX002 (ip), vehicle: saline with Tween-80) turn out when OCC1OC(n2nc(Cl)c3ccccc32)C(O)C1O (centres undefined) was run?
The T/C was 129 % of control.

And the survivor count (dose: 50.0 mg/kg/injection, schedule: Q01DX009 (ip), vehicle: saline with Tween-80)?
The survivor count was 6 of 6.

For O=c1[nH]ccc2sccc12, which survivor count [8] is on record?
Its survivor count is 3 of 6.

Which results are given for COc1c2occc2c(N=Cc2ccccn2)c2ccc(=O)oc12?
survivor count (dose: 50.0 mg/kg/injection, schedule: Q01DX005 (ip), vehicle: Klucel (hydroxypropylcellulose) (HPC)): 6 of 6; survivor count (dose: 100.0 mg/kg/injection, schedule: Q01DX005 (ip), vehicle: Klucel (hydroxypropylcellulose) (HPC)): 6 of 6; survivor count [2]: 6 of 6

For CC(CN(C)C)C(=O)/C=C/c1c(Cl)cccc1Cl (centres undefined), which survivor count [6] is on record?
The survivor count was 4 of 6.

And the survivor count [7]?
Its survivor count is 0 of 6.

Which T/C [1] does the source give for CCCC1CN2CCc3cc(OC)c(OC)cc3C2CC1=O (centres undefined) here?
Its T/C is 128 % of control [5 of 6 alive].

With O=C(Nc1ccc(N=C=S)cc1Cl)c1cc(Cl)cc(Cl)c1O as the compound, how does the T/C [3] read?
The T/C was 131 % of control.

What about the T/C [4] of the same compound?
The T/C was 127 % of control.

And the survivor count [5]?
The survivor count was 5 of 6 and 6 of 6.

Which survivor count [9] does the source give for CCN(CC)CCOCC1CC2C(C=C1C)C2(C)C (centres undefined) here?
The survivor count was 0 of 6.

How did the survivor count [10] turn out when FC(F)(F)SN1CN(SC(F)(F)F)CN(SC(F)(F)F)CN(SC(F)(F)F)C1 was run?
The survivor count was 5 of 6.

With CCCNC(=O)OCC1=C(COC(=O)NCCC)C2OC1C(C(=O)OC)=C2C(=O)OC as the compound, how does the survivor count (dose: 100.0 mg/kg/injection, schedule: Q01DX009 (ip), vehicle: distilled water + Tween-80) read?
Its survivor count is 3 of 6.

And the survivor count (dose: 200.0 mg/kg/injection, schedule: Q01DX009 (ip), vehicle: distilled water + Tween-80)?
The survivor count was 0 of 6.

Which survivor count (dose: 100.0 mg/kg/injection, schedule: Q01DX005 (ip), vehicle: saline) does the source give for CN(C)c1ccc2c(=O)c(C(=O)O)c[nH]c2c1 here?
The survivor count was 6 of 6.

What about the survivor count [9] of the same compound?
The survivor count was 6 of 6.

How did the survivor count [2] turn out when CC(C)(C)N1CCC1 was run?
The survivor count was 0 of 6.

What does the source list for C=C(N)/C=C1/NC(C)=CS1?
survivor count [10]: 1 of 6; survivor count [11]: 0 of 6

CN(C)c1ccc2nc3ccc(=[N+](C)C)c([N+](=O)[O-])c-3sc2c1 was tested. Which survivor count (dose: 60.0 mg/kg/injection, schedule: Q01DX005 (ip), vehicle: saline) did it give?
Its survivor count is 1 of 6.

And the survivor count [10]?
The survivor count was 0 of 6.

What about the survivor count [12] of the same compound?
Its survivor count is 0 of 5.

What about the survivor count [11] of the same compound?
The survivor count was 0 of 6.

What does the source list for C=C1C(=O)OC2/C=C(\C)C3OC3/C=C(/C(=O)OC)C(OC(C)=O)C(OC(=O)C(C)(O)C(C)OC(C)=O)C12 (centres undefined)?
T/C (dose: 3.0 mg/kg/injection, schedule: Q01DX009 (ip), vehicle: Klucel (hydroxypropylcellulose) (HPC)): 125 and 129 % of control; T/C (dose: 6.0 mg/kg/injection, schedule: Q01DX009 (ip), vehicle: Klucel (hydroxypropylcellulose) (HPC)): 126 and 140 % of control; T/C (dose: 12.0 mg/kg/injection, schedule: Q01DX009 (ip), vehicle: Klucel (hydroxypropylcellulose) (HPC)): 138 and 140 % of control; survivor count (dose: 24.0 mg/kg/injection, schedule: Q01DX009 (ip), vehicle: Klucel (hydroxypropylcellulose) (HPC)): 3 of 6; survivor count (dose: 48.0 mg/kg/injection, schedule: Q01DX009 (ip), vehicle: Klucel (hydroxypropylcellulose) (HPC)): 0 of 6; survivor count (dose: 96.0 mg/kg/injection, schedule: Q01DX009 (ip), vehicle: Klucel (hydroxypropylcellulose) (HPC)): 0 of 6

Which survivor count (dose: 50.0 mg/kg/injection, schedule: Q01DX005 (ip), vehicle: saline with Tween-80) does the source give for O=C1C=CC(=O)c2c1c(O)c1ccccc1c2Cl here?
The survivor count was 6 of 6.

And the survivor count (dose: 100.0 mg/kg/injection, schedule: Q01DX005 (ip), vehicle: saline with Tween-80)?
Its survivor count is 6 of 6.

And the survivor count [12]?
The survivor count was 6 of 6.

O=S(=O)(F)c1cccc(Cl)c1C[P+](c1ccccc1)(c1ccccc1)c1ccccc1 was tested. Which T/C (dose: 1.88 mg/kg/injection, schedule: Q01DX005 (ip), vehicle: saline with Tween-80) did it give?
Its T/C is 128 % of control.

And the T/C (dose: 3.75 mg/kg/injection, schedule: Q01DX005 (ip), vehicle: saline with Tween-80)?
The T/C was 135 % of control.

And the T/C (dose: 7.5 mg/kg/injection, schedule: Q01DX005 (ip), vehicle: saline with Tween-80)?
The T/C was 136 % of control.

And the T/C (dose: 7.5 mg/kg/injection, schedule: Q01DX005 (ip), vehicle: saline)?
The T/C was 129 % of control.

What about the survivor count (dose: 15.0 mg/kg/injection, schedule: Q01DX005 (ip), vehicle: saline) of the same compound?
The survivor count was 5 of 6.

What about the survivor count (dose: 30.0 mg/kg/injection, schedule: Q01DX005 (ip), vehicle: saline) of the same compound?
The survivor count was 4 of 6.

And the survivor count (dose: 60.0 mg/kg/injection, schedule: Q01DX005 (ip), vehicle: saline with Tween-80)?
Its survivor count is 0 of 6.

And the survivor count [6]?
Its survivor count is 0 of 6.

What about the survivor count [7] of the same compound?
Its survivor count is 0 of 6.

How did the survivor count (dose: 50.0 mg/kg/injection, schedule: Q01DX009 (ip), vehicle: saline) turn out when Cn1nc[n+](C)n1 was run?
The survivor count was 5 of 6.

How did the survivor count [5] turn out when C/C(=N\Nc1cc(C)nc2ccc(C)cc12)c1cn(C)n(-c2ccccc2)c1=O was run?
Its survivor count is 6 of 6.

O=[N+]([O-])c1cccc2c1c([N+](=O)[O-])cc[n+]2[O-] was tested. Which survivor count (dose: 50.0 mg/kg/injection, schedule: Q04DX002 (ip), vehicle: saline with Tween-80) did it give?
The survivor count was 5 of 6.

What about the survivor count (dose: 100.0 mg/kg/injection, schedule: Q04DX002 (ip), vehicle: saline with Tween-80) of the same compound?
Its survivor count is 0 of 6.

What about the survivor count (dose: 200.0 mg/kg/injection, schedule: Q04DX002 (ip), vehicle: saline with Tween-80) of the same compound?
The survivor count was 0 of 6.

With CC(C)N(Cc1ccccc1)CC(O)c1ccc(Cl)cc1 (centres undefined) as the compound, how does the survivor count [8] read?
Its survivor count is 5 of 6.
